Out of some 220,000 compounds screened, about 770 (0.35%) were called active. The shares of active, inactive and inconclusive entries below differ from those in the screen. Rule as the data show it: active = binding response below about 49% or above about 150%; inconclusive = no clear call, values can overlap the other calls; inactive = in between.
molecular target: Guanine nucleotide-binding protein G(o) subunit alpha (Homo sapiens) (UniProt P09471); experiment: RGS7-Galphao binding modulators, primary screen, biochemical, multiplexed bead flow cytometry (AID 1439); conditions: at 10 µM, actives lie on both sides;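 also: fluorescent Galphao held in activated GDP-AlF4 state binding bead-coupled RGS7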

Chains of the proteins cited; added tags and fusions are not shown.
UniProt P09471, whole entry, looked up: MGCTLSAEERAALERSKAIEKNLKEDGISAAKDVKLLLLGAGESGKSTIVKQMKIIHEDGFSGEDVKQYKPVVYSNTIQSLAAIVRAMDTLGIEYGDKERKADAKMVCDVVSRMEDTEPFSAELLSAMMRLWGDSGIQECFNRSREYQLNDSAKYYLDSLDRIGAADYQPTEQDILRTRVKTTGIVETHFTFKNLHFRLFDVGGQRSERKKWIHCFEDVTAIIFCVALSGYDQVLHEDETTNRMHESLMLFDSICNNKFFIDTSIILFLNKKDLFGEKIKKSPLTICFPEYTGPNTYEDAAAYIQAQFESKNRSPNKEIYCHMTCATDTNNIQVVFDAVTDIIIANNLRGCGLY

Row | Compound | binding response (% of control)
1 | Cc1cc(N=Nc2ccc(Cl)cc2)cc(CN2CCOCC2)c1O | inconclusive: 99.1%
2 | Cc1[nH]c2ccccc2c1/C=N/NC(N)=S | inconclusive: 90.7%
3 | C/C(=N\Nc1ccc(C#N)cc1[N+](=O)[O-])c1ccc(O)cc1 | inconclusive: 143%
4 | CCOC(=O)C1(Cc2cccc(OC)c2)CCCN(Cc2c(C)nn(C(C)C)c2C)C1 (stereo not given) | inconclusive: 92.3%
5 | O=S(=O)(NC1CC1)c1ccc(S(=O)(=O)N(Cc2ccccn2)C2CC2)cc1 | inconclusive: 91.2%
6 | COc1cc(C2/C(=C(/O)c3ccc(OCC(C)C)cc3)C(=O)C(=O)N2CCN(C)C)ccc1O (stereo not given) | inactive: 113%
7 | CCn1cc(C(=O)O)c(=O)c2cc(F)c(N3CCN(C(=S)Nc4ccc(OC)cc4)CC3)cc21 | inconclusive: 103%
8 | CC(=O)/C(C#N)=C1\NC(=O)C(Cc2cc(Cl)ccc2Cl)S1 (stereo not given) | inconclusive: 92.1%
9 | FC(F)(F)c1nc(SCc2ccc(Cl)cc2Cl)n[nH]1 | inconclusive: 116%
10 | CCOC(=O)C1CCN(C(=O)Nc2cc(Cl)cc(Cl)c2)CC1 | inconclusive: 110%
11 | S=C1N(c2ccccc2)C(c2ccc(Br)cc2)N2CCCN12 (stereo not given) | inconclusive: 134%
12 | Cc1ccc(-c2noc(CCC(=O)NCCN3CCc4ccccc4C3)n2)cc1 | inactive: 103%
13 | O=C(Cn1nc(-c2ccccc2)c2ccccc2c1=O)Nc1ccc(F)cc1 | inconclusive: 114%
14 | CC(=O)Nc1ccc(S(=O)(=O)NNC(=O)C(=O)NNc2ccccn2)cc1 | inconclusive: -527%
15 | Cc1c(/C(O)=C2/C(=O)C(=O)N(Cc3cccnc3)C2c2ccccn2)cnn1-c1ccccc1 (stereo not given) | inconclusive: 89.5%
16 | CN1CCN(c2nc3ccccc3nc2C(C#N)S(=O)(=O)c2ccccc2)CC1 (stereo not given) | inconclusive: 114%
17 | Cc1ccc(OCC(=O)Nc2ccc(F)cc2)cc1C | inactive: 93%
18 | OCc1nc2ccccc2n1/N=C/c1cccs1 | inconclusive: 232%
19 | CC(C)(C)c1ccc(/C=N/NC(=S)Nc2cccnc2)cc1 | inconclusive: 101%
20 | CCOC(=O)/C(=C/Nc1ccc(F)cc1)[N+](=O)[O-] | inconclusive: 98.7%
21 | CC1(OC(=O)C2CCCC2)C(=O)C=C2C=C(c3ccsc3)N(C3CCCC3)C=C2C1=O (stereo not given) | inconclusive: 99.6%
22 | O=C(O)c1ccc(/C=N/O)cc1 | inconclusive: 102%
23 | Cc1cc(C)n2cnnc2n1 | inconclusive: 136%

Row | Compound | binding response (% of control)
24 | O=C(/C=C/c1cccs1)N1CCC2(CC1)Oc1ccc(F)cc1C(=O)C21CC(c2ccc(Cl)cc2)=NO1 (stereo not given) | inconclusive: 93.8%
25 | COc1ccc(NS(=O)(=O)c2cc(NC(=O)c3nc4nc(C)cc(C)n4n3)ccc2C)cc1 | inconclusive: 106%
26 | O=C(C(Cc1ccccc1)n1cccc1)N1CCN(Cc2ccccc2)CC1 (stereo not given) | inactive: 116%
27 | CCC1(c2ccccc2)NC(=O)N(CC#N)C1=O (stereo not given) | inconclusive: 98.5%
28 | O=C(COC(=O)C12CC3CC(CC(O)(C3)C1)C2)NC12CC3CC(CC(C3)C1)C2 | inconclusive: 101%
29 | O=C(NC(=S)Nc1ccccc1N1CCOCC1)c1ccc(-c2ccccc2F)o1 | inconclusive: 113%
30 | Cc1ccc(NC(=O)CN2CCC(C(N)=O)CC2)cc1[N+](=O)[O-] | inconclusive: 105%
31 | COc1ccc(N2CCN(C(=O)Cn3c(=O)[nH]c4ccccc4c3=O)CC2)cc1 | inactive: 98.6%
32 | O=C(NCCCc1ccccc1)N1CCOCC1 | inactive: 97.2%
33 | CCCc1ccc(OC(=O)c2ccc(O)cc2Cl)cc1 | inactive: 92.2%
34 | CCc1ccc(OCCn2cccn2)cc1 | inconclusive: 119%
35 | C/C(=C\CCC1(C)C2CC3C(C2)C31C)C(=O)O (stereo not given) | inconclusive: 109%
36 | CCOC(=O)c1ccc(NC(=O)c2nc[nH]c2C(=O)N(C)Cc2ccccc2)cc1 | inconclusive: 87.7%
37 | CCCC1(C(=O)OCC)NC(c2ccco2)C2C(=O)N(C)C(=O)C21 (stereo not given) | inactive: 99.2%
38 | O=C(CNC(=O)c1cccc(OC(F)F)c1)OCc1cc(=O)n2cc(Br)ccc2n1 | inactive: 90.5%
39 | COc1ccccc1NC(=O)Cn1nnc2sc3c(c2c1=O)CC(C)(C)OC3 | inconclusive: 111%
40 | O=C(COC(=O)c1ccc(Br)cc1)NCc1ccc(F)cc1 | inconclusive: 59.5%
41 | O=C(COC(=O)CCC(=O)c1cccs1)Nc1ccccc1[N+](=O)[O-] | inconclusive: 105%
42 | CN(NC1OC(=O)c2ccccc21)c1ncc(C(F)(F)F)cc1Cl (stereo not given) | inconclusive: -1.03%
43 | O=C(O)c1csc(-c2cccc(Cl)c2)n1 | inconclusive: 91.5%
44 | Cc1ccc(S(=O)(=O)N(C)C)cc1NC(=S)NCCCn1ccnc1 | inconclusive: 67.8%
45 | O=C(c1ccc(F)cc1)N1CCN(c2ccc([N+](=O)[O-])cc2-n2cccc2)CC1 | inconclusive: 77.6%
46 | COc1ccccc1NC(=O)C1CCC(CNc2c(N3CCCCC3)c(=O)c2=O)CC1 (stereo not given) | inconclusive: 106%

Row | Compound | binding response (% of control)
47 | COc1ccc(CCNC(=O)CSc2ccc(-c3ccco3)nn2)cc1 | inconclusive: 85.3%
48 | COc1ccc(Cc2nnc(NC(=O)C(C)C)s2)cc1 | inconclusive: 95.2%
49 | N#Cc1ccc(C23CC4(C2)[C@H](CN(Cc2ccc(C(F)(F)F)cc2)[C@@H]4c2ccccc2)C3c2ccccc2)cc1 (stereo not given in full) | inconclusive: 84.8%
50 | O=C(CCS(=O)(=O)Cc1ccccc1F)NCc1ccccc1Cl | inactive: 98.1%
51 | O=C(O)c1ccc(Cl)c(S(=O)(=O)Nc2ccc3[nH]c(=O)[nH]c3c2)c1 | inconclusive: 64%
52 | COC(=O)c1c(C(C)=O)c(C)n(C)c1C | inconclusive: 70.1%
53 | CSC(=CC(=O)c1ccc(F)cc1)SC | inconclusive: 101%
54 | CC(C)C(NC(=O)c1ccccc1Br)c1ccccc1 (stereo not given) | inconclusive: 104%
55 | Cn1c(SCc2ccc([N+](=O)[O-])cc2)nnc1-c1cccnc1 | inconclusive: 92.5%
56 | CN(Cc1ccccc1)C(=O)c1ccccc1C(=O)O | inconclusive: 108%
57 | COc1ccc(Cl)cc1NC(=S)NNC(=O)CC(C)C | inconclusive: 89.4%
58 | CCOC(=O)C(C)Oc1ccc(NC(=O)C(Cl)Cl)cc1 (stereo not given) | inconclusive: 103%
59 | CC(NCc1ccc(S(N)(=O)=O)cc1)C(=O)Nc1cc([N+](=O)[O-])ccc1Cl (stereo not given) | inconclusive: 107%
60 | CCOc1ccc2[nH]c(=O)c(C(c3nnnn3C3CCCCC3)N3CCN(CC)CC3)cc2c1 (stereo not given) | inactive: 132%
61 | CCCc1c(-c2ccc(O)cc2)nn(-c2ccc(O)cc2)c1-c1ccc(O)cc1 | inconclusive: 96.7%
62 | O=C(Nc1ccc(Nc2ccccc2)cc1)Nc1ccccc1Cl | inconclusive: 103%
63 | CCO/N=C(\N)c1[nH]ncc1Br | inconclusive: 112%
64 | O=C(Nc1ccc(OC(F)(F)F)cc1)Oc1ccccc1N1CCOCC1 | inconclusive: 106%
65 | CC1Oc2ccccc2C=C1/C=N/NC(=O)c1ccncc1 (stereo not given) | inconclusive: 80.7%
66 | CS(=O)(=O)c1ccc2sc(NC(=O)c3cc4ccccc4o3)nc2c1 | inconclusive: 117%
67 | COCC(=O)OC/C(O)=C(\C#N)c1nc2ccccc2[nH]1 | inconclusive: 77.2%
68 | COc1ccccc1NS(=O)(=O)c1ccc(O)c(NC(=S)NCC2CCCO2)c1 (stereo not given) | inconclusive: 114%
69 | COc1ccc(C2=NN(CN3C(=O)C(=O)c4ccccc43)C(c3cccc([N+](=O)[O-])c3)C2)cc1 (stereo not given) | inconclusive: 58%

Row | Compound | binding response (% of control)
70 | O=c1ccn(Cc2ccccc2)c2ccccc12 | inconclusive: 119%
71 | CCCN(CCC)S(=O)(=O)c1ccc(C(=O)Nc2nnc(COC)o2)cc1 | inconclusive: 133%
72 | COc1cc(OC)c(OC)cc1/C=N/NC(=S)NCCN1CCOCC1 | inconclusive: 122%
73 | CC(Nc1cccc(F)c1)C(=O)Nc1ccc(S(N)(=O)=O)cc1 (stereo not given) | inconclusive: 108%
74 | CN(C)c1ccc(C2Nc3ccccc3C(=O)N2CCN2CCNC2=O)cc1 (stereo not given) | inconclusive: 72.1%
75 | COc1ccc2c3c([nH]c2c1)C(C)N(C(C)=O)CC3 (stereo not given) | inconclusive: 112%
76 | CCOC(=O)C1=C(C)OC2(O)c3ccccc3C(=O)C12O (stereo not given) | inconclusive: 59.7%
77 | CN(Cc1ccccn1)Cc1cn(Cc2ccccc2)nc1-c1ccc2c(c1)OCO2 | inconclusive: 101%
78 | O=S(=O)(c1ccc(Cl)cc1)N1CCCN(c2ccc(C(F)(F)F)cn2)CC1 | inconclusive: 232%
79 | O=C(CSCc1ccc(Cl)cc1)Nc1ccccc1O | inconclusive: 102%
80 | O=C(CC(c1ccccc1)c1cc(Br)ccc1O)N1CCCCC1 (stereo not given) | inconclusive: 157%
81 | C/C(=N\O)C(C)(C)Nc1cccc(Br)c1 | inconclusive: 112%
82 | O=C(N/N=C/c1cccn1-c1ccc([N+](=O)[O-])cc1)c1cccnc1 | inconclusive: 101%
83 | CC(C)N1CCc2c(sc(NC(=O)c3ccc(S(=O)(=O)N4CCc5ccccc54)cc3)c2C(N)=O)C1 | active: 153% [activator]
84 | Cc1ccc(S(=O)(=O)Nc2ccc3c(c2)OCCO3)cc1 | inconclusive: 102%
85 | CCOC(=O)C(C(=O)OCC)C(Nc1ccccc1)c1ccccc1 (stereo not given) | inactive: 78.7%
86 | CC(=O)c1cccc(N(C(=O)CNC(=O)c2ccco2)C(C(=O)NCc2ccco2)c2ccccc2)c1 (stereo not given) | inactive: 103%
87 | COc1ccc(N=N/C(C(C)=O)=C(/C)O)cc1 | inconclusive: 110%
88 | COC(=O)CCCC1=CC2=C(c3ccccc3)C(=O)C(C)(OC(=O)C3CCCC3)C(=O)C2=CN1Cc1ccc(OC)cc1 (stereo not given) | inconclusive: 90.5%
89 | OCC(O)/C=N/Nc1nc(N2CCCCC2)nc(N2CCCCC2)n1 (stereo not given) | inactive: 105%
90 | Cc1ccccc1NC(=O)C(=O)NCCc1c[nH]c2ccccc12 | inconclusive: 108%
